These are yes or no findings as the source states them, for the method shown. Binding seen in cells or lysates may run through a third protein. A yes stands for co-enrichment or nearness to the bait. Other partners may have been found.
B1: F420 (MSMEG_0777) (protein, UniProt A0QQJ4 1-336)
chain: MAELKLGYKASAEQFAPRELVELAVLAESAGMDSATVSDHFQPWRHEGGHAPFSLAWMTAVGERTKNLVLGTSVLTPTFRYNPAVIAQAFATMGCLYPGRIFLGVGTGEALNEIATGYAGEWPEFKERFARLRESVRLMRELWLGDRVDFDGEYYRTKGASIYDVPEGGIPVYIAAGGPVVAKYAGRAGDGFICTSGKGEELYAEKLIPAVKEGAAAADRDADAIDRMIEIKISYDTDPELALENTRFWAPLSLTAEQKHSIDDPIEMEKAADALPIEQVAKRWIVASDPDEAVEKVGQYVKWGLNHLVFHAPGHDQRRFLELFKRDLEPRLRKLA
B2: CbiA (MSMEG_0067) (protein, UniProt A0QNJ7 1-474)
chain: MSADYDRLFHSSEPGKPVDDATITVDRDAILKATAATPRVPAGEKPPADAPSGAMPVAPTQTQSAATPSRTAEPQVPPPMPPPPATAPQWPQNSMLRAPQQQQFGPGARHEQPATLPPPAQRLAPGPAPSQLSDIDPEISGAWRAGQAVPAPAQPGPTSAASMGNHRAIDALSHVGVKTNVKMPSQRGWRHWLYVMTRINLGLSPDEIYELDLHNRIRRNARDSYQIGVFGLKGGVGKTAVTVSLGSAMAKIRGDRILAIDADPDGGNLADRAGRQSAATIADLLADQELSRYNDIRAYTSMNSSNLEVLSSEDYSGAQREFNDDDWKGATAVVSRYYNLVLADCGAGLFQKATRGVLSTISGLVIVASASIDGARQAAVTMDWLRQNGYQDLLGRSCVVINHVTPGKPNVDVEDLVQQFERHVPPGRVIVLPYDKHIAAGTEIQLDLLSDTFQRRITELAAALSDDFDRLERR

Chains of the proteins cited; added tags and fusions are not shown.
UniProt A0QW02: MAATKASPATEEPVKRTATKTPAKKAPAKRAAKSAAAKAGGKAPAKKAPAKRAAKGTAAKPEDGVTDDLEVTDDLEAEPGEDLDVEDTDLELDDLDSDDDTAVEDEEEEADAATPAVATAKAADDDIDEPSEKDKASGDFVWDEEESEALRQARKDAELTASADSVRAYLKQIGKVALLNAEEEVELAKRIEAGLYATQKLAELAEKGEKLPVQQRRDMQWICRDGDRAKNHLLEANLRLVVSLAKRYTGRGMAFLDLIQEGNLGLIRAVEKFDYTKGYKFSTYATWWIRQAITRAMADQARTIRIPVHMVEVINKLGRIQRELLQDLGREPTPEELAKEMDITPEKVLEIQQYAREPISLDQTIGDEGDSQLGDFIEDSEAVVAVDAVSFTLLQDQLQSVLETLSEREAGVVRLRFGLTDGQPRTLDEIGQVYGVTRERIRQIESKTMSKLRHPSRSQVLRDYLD
UniProt Q3L885: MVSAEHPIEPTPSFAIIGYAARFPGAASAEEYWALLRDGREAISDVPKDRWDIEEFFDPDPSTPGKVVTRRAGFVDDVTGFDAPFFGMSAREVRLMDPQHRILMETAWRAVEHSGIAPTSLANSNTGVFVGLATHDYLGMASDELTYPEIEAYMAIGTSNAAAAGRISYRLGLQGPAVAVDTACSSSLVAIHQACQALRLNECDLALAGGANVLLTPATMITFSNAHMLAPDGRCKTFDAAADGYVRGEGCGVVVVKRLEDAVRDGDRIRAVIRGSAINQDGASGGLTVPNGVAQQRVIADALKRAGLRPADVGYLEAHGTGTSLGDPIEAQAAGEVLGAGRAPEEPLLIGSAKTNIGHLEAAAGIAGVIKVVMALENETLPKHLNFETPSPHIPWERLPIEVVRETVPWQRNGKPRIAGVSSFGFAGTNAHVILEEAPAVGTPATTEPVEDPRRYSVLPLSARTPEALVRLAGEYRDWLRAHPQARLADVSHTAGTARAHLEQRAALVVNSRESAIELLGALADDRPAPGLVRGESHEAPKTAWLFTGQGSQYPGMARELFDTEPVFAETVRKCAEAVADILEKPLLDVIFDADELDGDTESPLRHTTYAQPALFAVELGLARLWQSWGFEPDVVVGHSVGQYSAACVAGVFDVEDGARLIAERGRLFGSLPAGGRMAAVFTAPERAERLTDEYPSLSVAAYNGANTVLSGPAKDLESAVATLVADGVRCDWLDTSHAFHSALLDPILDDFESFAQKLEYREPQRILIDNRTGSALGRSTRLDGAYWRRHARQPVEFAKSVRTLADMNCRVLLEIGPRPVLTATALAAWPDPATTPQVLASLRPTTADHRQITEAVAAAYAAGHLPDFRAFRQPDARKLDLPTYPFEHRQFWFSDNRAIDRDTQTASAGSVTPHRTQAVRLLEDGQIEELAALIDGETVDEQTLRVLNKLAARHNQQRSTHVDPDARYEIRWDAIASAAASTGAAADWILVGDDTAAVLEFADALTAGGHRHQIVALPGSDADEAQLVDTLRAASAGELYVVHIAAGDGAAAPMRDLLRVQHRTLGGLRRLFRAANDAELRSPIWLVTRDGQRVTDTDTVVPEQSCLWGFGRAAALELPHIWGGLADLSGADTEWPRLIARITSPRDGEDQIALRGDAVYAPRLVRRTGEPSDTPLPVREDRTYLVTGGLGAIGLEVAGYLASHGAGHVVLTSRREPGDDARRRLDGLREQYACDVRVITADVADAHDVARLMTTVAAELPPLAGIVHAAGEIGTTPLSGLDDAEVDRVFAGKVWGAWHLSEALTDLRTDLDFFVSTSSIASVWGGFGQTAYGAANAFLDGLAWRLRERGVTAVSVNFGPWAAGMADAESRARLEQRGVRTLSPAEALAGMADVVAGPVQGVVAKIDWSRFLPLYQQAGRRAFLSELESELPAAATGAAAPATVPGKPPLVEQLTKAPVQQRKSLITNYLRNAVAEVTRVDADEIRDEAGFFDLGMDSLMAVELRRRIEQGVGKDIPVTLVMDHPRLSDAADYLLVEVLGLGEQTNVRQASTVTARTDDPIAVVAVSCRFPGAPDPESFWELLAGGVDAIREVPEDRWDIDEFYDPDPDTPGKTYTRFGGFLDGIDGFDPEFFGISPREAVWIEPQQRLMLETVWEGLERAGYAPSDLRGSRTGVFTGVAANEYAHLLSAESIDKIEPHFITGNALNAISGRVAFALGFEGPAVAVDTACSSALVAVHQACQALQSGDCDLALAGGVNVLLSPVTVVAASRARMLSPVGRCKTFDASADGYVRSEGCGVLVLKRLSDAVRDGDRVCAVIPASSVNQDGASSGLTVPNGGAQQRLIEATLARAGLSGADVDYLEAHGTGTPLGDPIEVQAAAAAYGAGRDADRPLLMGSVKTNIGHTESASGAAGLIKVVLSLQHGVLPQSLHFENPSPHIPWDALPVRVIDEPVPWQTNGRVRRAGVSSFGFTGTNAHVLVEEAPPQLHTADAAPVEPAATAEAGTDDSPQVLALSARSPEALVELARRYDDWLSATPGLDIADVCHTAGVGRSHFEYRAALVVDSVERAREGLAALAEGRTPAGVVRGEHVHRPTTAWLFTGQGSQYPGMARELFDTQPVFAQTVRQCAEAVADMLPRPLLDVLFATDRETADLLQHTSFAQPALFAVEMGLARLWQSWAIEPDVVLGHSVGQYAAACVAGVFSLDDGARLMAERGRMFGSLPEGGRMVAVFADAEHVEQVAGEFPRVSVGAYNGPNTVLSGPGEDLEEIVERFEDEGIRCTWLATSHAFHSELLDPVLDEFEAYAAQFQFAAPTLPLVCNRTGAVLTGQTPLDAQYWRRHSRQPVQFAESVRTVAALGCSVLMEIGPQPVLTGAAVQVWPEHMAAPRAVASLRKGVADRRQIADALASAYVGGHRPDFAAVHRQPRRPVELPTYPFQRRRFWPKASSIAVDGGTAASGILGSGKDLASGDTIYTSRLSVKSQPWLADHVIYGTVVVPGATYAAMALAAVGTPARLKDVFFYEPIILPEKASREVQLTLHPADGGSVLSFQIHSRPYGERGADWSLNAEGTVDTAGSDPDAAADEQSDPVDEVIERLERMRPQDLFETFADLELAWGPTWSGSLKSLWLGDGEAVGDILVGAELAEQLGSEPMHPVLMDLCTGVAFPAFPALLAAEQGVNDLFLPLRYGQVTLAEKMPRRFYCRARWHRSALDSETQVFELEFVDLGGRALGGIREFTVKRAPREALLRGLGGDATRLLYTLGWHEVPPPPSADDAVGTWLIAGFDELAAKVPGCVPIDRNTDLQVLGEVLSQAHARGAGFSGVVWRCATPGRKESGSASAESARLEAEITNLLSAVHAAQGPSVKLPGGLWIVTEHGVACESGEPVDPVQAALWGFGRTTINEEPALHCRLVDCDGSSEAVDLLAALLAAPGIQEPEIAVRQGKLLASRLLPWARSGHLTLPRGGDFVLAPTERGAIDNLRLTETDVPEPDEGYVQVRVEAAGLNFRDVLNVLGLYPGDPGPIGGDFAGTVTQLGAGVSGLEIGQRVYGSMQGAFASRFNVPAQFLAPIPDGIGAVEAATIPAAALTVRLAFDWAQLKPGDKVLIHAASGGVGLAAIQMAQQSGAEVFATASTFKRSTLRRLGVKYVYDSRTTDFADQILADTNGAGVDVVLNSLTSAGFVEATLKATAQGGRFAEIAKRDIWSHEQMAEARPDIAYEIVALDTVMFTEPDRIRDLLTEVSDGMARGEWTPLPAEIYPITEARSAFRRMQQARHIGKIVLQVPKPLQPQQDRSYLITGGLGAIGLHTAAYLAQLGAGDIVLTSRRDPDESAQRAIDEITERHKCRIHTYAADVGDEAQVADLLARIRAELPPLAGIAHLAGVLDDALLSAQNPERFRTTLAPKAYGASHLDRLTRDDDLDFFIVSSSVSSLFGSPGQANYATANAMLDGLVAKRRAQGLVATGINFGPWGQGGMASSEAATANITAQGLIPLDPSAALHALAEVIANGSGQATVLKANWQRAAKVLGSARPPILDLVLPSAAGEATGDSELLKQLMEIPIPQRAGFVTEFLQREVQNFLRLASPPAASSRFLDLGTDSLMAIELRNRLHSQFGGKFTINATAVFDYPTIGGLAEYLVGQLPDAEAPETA

Molecular target: σ^A-FLAG, FLAG-tagged at the native locus (strain LK3207) (M. smegmatis) (UniProt A0QW02)
Assay: affinity purification with mass spectrometry; anti-FLAG M2 agarose IP from M. smegmatis lysates (exponential and stationary phase cells), elution with 3×FLAG peptide, in-solution trypsin digest, label-free LC-MS against the no FLAG strain

Molecule	binding
Pks (MSMEG_0408) (from UniProt Q3L885 1-3652)	binds
B1	binds
B2	binds

From article PMC11656743
